For at least one compound, name, drawing or mass did not settle the structure.
Biological target: T1, human F508del CFTR (Homo sapiens, UniProt P13569, DEL508-508)
T1 construct: expressed in transfected cells; host or cells: Fisher Rat Thyroid (FRT) cells
Assay: CFTR-YFP High Throughput Assay
Type: cell-based
Settings: FRT cells expressing human F508del CFTR and YFP
Description: Assays for Detecting and Measuring the Effect of Compounds on F508del-CFTR Channels CFTR-YFP High Throughput Assay-CFTR Corrector Protocol:
This protocol is designed to selectively screen small molecule compounds for F508del CFTR corrector activities in the HTS YFP (yellow fluorescent protein) flux assay. In this protocol, the cells are incubated with testing compounds for 24 hours, washed with PBS, stimulated with forskolin and a standard potentiator, and fluorescence in each plate well is measured kinetically read on a 384-well HTS plate reader, such as the Hamamatsu FDSS-6000.
YFP fluorescence intensity values are acquired at high speed before and after iodide buffer is injected to the assay cells. Iodide enters the cells via active CFTR channels in the plasma membrane, and quenches the YFP fluorescence. The rate of fluorescence quenching is proportionate to the total CFTR activity in the cell membrane. F508del CFTR correctors increase the number of CFTR molecules in the testing cell plasma membrane, and thereby accelerate YFP quenching.
This method was initially developed for bench top plate readers (Galietta et al., 2001), and was adapted to the HTS format (Sui et al. Assay Drug Dev. Technol. 2010). […]
This protocol is designed to selectively screen small molecule compounds for F508del CFTR potentiator activities in the HTS YFP flux assay. […] Measurement of ion flux is initiated by addition of iodide-containing buffer, and YFP quenching is kinetically recorded using a 384-well HTS plate reader, such as the Hamamatsu FDSS-6000.
YFP fluorescence intensity values are acquired at high speed over a 1 min time course before and after iodide buffer is injected to the assay cells. Iodide enters the cells via active CFTR channels in the plasma membrane, and quenches the YFP fluorescence. The rate of fluorescence quenching is proportionate to total CFTR activity in the cell membrane. […]

Chains of the proteins cited; added tags and fusions are not shown. A line that says so, or that is headed by a name, gives the form on record, which may keep a tag or linker.
UniProt P13569, with tags, fused parts or gaps DEL508-508: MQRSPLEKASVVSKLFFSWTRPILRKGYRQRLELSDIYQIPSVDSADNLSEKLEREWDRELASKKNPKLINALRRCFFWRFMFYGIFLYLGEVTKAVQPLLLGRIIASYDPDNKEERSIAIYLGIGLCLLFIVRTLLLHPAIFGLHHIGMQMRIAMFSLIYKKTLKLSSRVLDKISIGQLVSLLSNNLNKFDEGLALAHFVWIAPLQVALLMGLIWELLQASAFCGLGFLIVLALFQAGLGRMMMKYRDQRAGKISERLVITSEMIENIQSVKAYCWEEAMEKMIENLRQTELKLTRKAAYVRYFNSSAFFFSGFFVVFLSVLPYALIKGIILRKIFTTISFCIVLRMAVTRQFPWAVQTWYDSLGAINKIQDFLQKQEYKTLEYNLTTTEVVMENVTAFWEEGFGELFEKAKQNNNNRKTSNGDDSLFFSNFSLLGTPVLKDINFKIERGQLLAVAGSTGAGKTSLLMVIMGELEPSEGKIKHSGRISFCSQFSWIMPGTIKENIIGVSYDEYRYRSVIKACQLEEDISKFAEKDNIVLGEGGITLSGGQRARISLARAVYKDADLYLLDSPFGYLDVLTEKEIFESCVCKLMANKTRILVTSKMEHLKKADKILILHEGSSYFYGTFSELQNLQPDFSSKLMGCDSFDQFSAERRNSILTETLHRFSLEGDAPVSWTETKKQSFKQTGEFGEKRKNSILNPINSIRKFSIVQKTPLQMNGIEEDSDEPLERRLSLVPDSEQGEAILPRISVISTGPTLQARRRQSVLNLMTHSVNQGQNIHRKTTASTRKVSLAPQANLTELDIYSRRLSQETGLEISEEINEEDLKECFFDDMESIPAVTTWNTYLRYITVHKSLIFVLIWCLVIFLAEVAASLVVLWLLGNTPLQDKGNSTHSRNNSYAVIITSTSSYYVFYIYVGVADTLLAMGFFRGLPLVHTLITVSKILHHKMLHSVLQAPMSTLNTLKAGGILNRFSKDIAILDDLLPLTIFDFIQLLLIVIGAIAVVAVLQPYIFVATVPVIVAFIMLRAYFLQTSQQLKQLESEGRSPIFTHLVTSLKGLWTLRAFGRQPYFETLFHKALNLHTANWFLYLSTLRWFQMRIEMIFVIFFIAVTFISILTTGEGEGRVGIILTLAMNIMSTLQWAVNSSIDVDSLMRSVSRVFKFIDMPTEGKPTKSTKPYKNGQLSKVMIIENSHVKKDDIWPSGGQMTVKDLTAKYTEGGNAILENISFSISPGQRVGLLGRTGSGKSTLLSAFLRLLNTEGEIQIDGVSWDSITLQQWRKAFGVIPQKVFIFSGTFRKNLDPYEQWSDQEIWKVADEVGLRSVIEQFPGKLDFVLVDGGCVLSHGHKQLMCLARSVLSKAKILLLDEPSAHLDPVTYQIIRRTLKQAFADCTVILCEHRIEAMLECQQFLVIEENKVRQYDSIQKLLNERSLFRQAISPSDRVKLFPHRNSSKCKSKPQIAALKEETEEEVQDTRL

Structure (SMILES)	EC50 [µM]
CCc1ccc(N(CC)C(=O)Cn2nc(C(=O)Nc3cc(Cl)ccc3C(=O)OC)c3ccccc3c2=O)cc1 [Example 130, methyl 4-chloro-2-(3-(2-(ethyl(4-ethylphenyl)amino)-2-oxoethyl)-4-oxo-3,4-dihydrophthalazine-1-carboxamido)benzoate]	10 to 20
CCN(C(=O)Cn1ncc2c(c1=O)c1ccccc1n2Cc1ccccn1)c1ccc2c(c1)OC(F)(F)O2 [Example 131, N-(2,2-difluorobenzo[d][1, 3]dioxol-5-yl)-N-ethyl-2-(1-oxo-5-(pyridin-2-ylmethyl)-1H-pyridazino[4,5-b]indol-2(5H)-yl)acetamide]	< 10
CCN(C(=O)c1nn(-c2ccccc2)c(=O)c2c1c1ccccc1n2C)c1ncnc2c1cnn2C [Example 164, N-ethyl-5-methyl-N-(1-methyl-1H-pyrazolo[3,4-d]pyrimidin-4-yl)-4-oxo-3-phenyl-4,5-dihydro-3H-pyridazino[4,5-b]indole-1-carboxamide]	> 20

Source: patent US10370366B2 (Flatley Discovery Lab, LLC, priority 2013, dated 2019)
